Results: the supplement of paper PMC7858590
Several values for one entry are separate records, joined by “and”; a condition that tells them apart may be missing. Identical values can stand only once. ± gives the standard deviation of the averaged measurements. Whole data set: some 3,800 compounds, median “cell shape (eccentricity) Z-score vs DMSO control” near 1.1, cut for the lowest 2% near -4.7. This is one part of the list.

system: human monocyte-derived macrophages (M0); assay: cell shape (eccentricity) Z-score vs DMSO control; higher = more elongated, M2-like morphology; conditions: 20 µM; 24 h; macrophage state: M0 (M-CSF)

Compound | cell shape (Z-score)
C=CC(C)(CC/C=C(\C)C(=O)O)O[C@@H]1O[C@H](C)[C@@H](O)[C@H](O)[C@H]1O (stereo partly drawn) | 0.936
O=C(c1ccc(/C=C/c2n[nH]c3ccccc23)cc1)N1CCNCC1 | 20.2
CCC/C=C/C=C/C1CC(O)C(O)C(O)C1CO (stereo not drawn) | 0.441
COc1ccc(C=CC(=O)Nc2ccccc2C(=O)O)cc1OC | -1.37
COc1cc(C(C)/C=C(/C)CC(=O)O)oc(=O)c1C (stereo not drawn) | 0.462 ± 0.48
COc1ccc(-c2coc3cc(O)ccc3c2=O)cc1 | 2.79
COc1cc(N)c(Cl)cc1C(=O)CCC1CCN(CCNS(C)(=O)=O)CC1 | -0.808
C=C1C(O)C(O)C2(CC3C(C)=CCC4C(C)(C(=O)O)CCCC34C)OC2C1O (stereo not drawn) | 4.78
Nc1nc(=O)c2nc(CNc3ccc(C(=O)N[C@@H](CCC(=O)O)C(=O)O)cc3)cnc2[nH]1 | 3.54
Cc1cn([C@H]2C[C@H](N=[N+]=[N-])[C@@H](CO)O2)c(=O)[nH]c1=O | -2.27
O=C(N/N=C/c1ccccc1O)c1ccccc1O | 1.34
COC(=O)c1c(OC)cc2c(c1C)Oc1c(Cl)c(O)c(Cl)c(C)c1C(=O)O2 | 1.55
CN(C)CCN(Cc1ccc(Cl)cc1)c1ccccn1 | 3.03
CC(=N)NCc1cccc(CN)c1 | 0.873
NS(=O)(=O)Cc1noc2ccccc12 | 2.34
COc1ccccc1N1CCN(CCCCNC(=O)c2ccc(-c3ccc(C(C)=O)cc3)cc2)CC1 | 1.7
Cc1ccc(C(=O)Nc2ccc(S(=O)(=O)O)c3cc(S(=O)(=O)O)cc(S(=O)(=O)O)c23)cc1NC(=O)c1cccc(NC(=O)Nc2cccc(C(=O)Nc3cc(C(=O)Nc4ccc(S(=O)(=O)O)c5cc(S(=O)(=O)O)cc(S(=O)(=O)O)c45)ccc3C)c2)c1 | 11.2
Cc1ccc2c(c1)c1c3n2CCNC3CCC1 (stereo not drawn) | 3.56
COc1cc(C2c3c(cc(OC)c(O)c3OC)CC(CO[C@@H]3O[C@H](CO)[C@@H](O)[C@H](O)[C@H]3O)C2CO)cc(OC)c1O (stereo partly drawn) | 0.246
Cc1c(S(=O)(=O)O)oc2c1C(=O)C(=O)c1c-2ccc2c1CCCC2(C)C | 1.31
COc1ccc2cc1Oc1ccc(cc1)C[C@H]1c3cc(c(OC)cc3CCN1C)Oc1c(OC)c(OC)cc3c1[C@H](C2)N(C)CC3 | 1.85

Compound | cell shape (Z-score)
Cc1ccc(S(=O)(=O)NC(=O)NN2CCCCCC2)cc1 | 0.243
CCCCNCC1COc2ccccc2O1 (stereo not drawn) | 2.88
ClC(=Cn1cncn1)c1ccc(Cl)cc1Cl | 2.1
Cc1cccc(-c2nn3c(c2-c2ccnc4ccc(C(N)=O)cc24)CCC3)n1 | 1.89
c1cc2c(cc1C1CCCCC1)c1c3n2CCNC3CCC1 (stereo not drawn) | -2.39
CCCn1c(=O)[nH]c2nc(-c3ccc(S(=O)(=O)O)cc3)[nH]c2c1=O | 1.75
Oc1cccc2c(O)nccc12 | 0.28
CC[N+](CC)(CC(=O)Nc1c(C)cccc1C)Cc1ccccc1 | 1.74
COc1cc(NS(=O)(=O)c2ccc(N)cc2)nc(OC)n1 | -1.68
COc1cc2ccc(=O)oc2cc1O | -0.253
CC(=O)Oc1ccc2c(c1C(C)C)CCC1C(C)(C)CCC[C@]21C (stereo partly drawn) | 4.36
COc1cc(C(C)C)c2c(c1)S(=O)(=O)N(COc1cc(=O)n3cccc(OCCN4CCCCC4)c3n1)C2=O | -0.675
OC(CN1CCN(c2cccc(Cl)c2)CC1)C(c1ccccc1)c1ccccc1 (stereo not drawn) | 1.49
Clc1cccc(Nc2nnc(-c3ccccc3)c3ccccc23)c1 | 0.91
O=C(O[C@@H]1Cc2c(O)cc(O)cc2O[C@@H]1c1cc(O)c(O)c(O)c1)c1cc(O)c(O)c(O)c1 | 7.36
Cn1c(=O)c2c(n(C)c1=O)n(C)c(=O)n2C | 0.458
CC(C)c1nc(N(C)S(C)(=O)=O)nc(-c2ccc(F)cc2)c1/C=C/[C@@H](O)C[C@@H](O)CC(=O)O | 2.64
CC(C)c1ccccc1Cc1cc(C(=O)Nc2ccc(S(=O)(=O)c3ccccc3C(C)(C)C)cc2)c(O)c(O)c1O | 13.4
Cc1cccc(Nc2cc(Cl)nc(SCC(=O)O)n2)c1C | -1.88
COc1cc2oc3cc(OC)c(OC)c(CC=C(C)C)c3c(=O)c2c(O)c1CC=C(C)C | 1.19
COc1ccc(-c2oc3cc(OC)c(OC)c(OC)c3c(=O)c2OC)cc1 | 2.61

Compound | cell shape (Z-score)
CC(=O)N=c1sc(S(N)(=O)=O)nn1C | 1.52
COc1c(N2CCNC(C)C2)c(F)cc2c(=O)c(C(=O)O)cn(C3CC3)c12 (stereo not drawn) | 2.4
C/C=C(/C)C(=O)O[C@H]1C=C(C)C[C@H](OC(=O)c2ccc(O)cc2)C2[C@](O)(C(C)C)CC[C@@]21C (stereo partly drawn) | -3.37
O=C1CC(c2ccc(O)c(O)c2)Oc2cc(O)ccc21 (stereo not drawn) | 3.13
O=C(O)c1c(Sc2ccccc2)c2cc(Cl)ccc2n1Cc1ccc(Cl)cc1 | 0.705
CCN1CCC(CNC(=O)c2cc(S(N)(=O)=O)ccc2OC)C1 (stereo not drawn) | 4.95
Cc1nc2ccc(NC(=O)Nc3ccnc4cccnc34)cc2o1 | 2.05
CC(=O)CCCCCCCc1[nH]c2ccccc2c(=O)c1O[C@@H]1O[C@H](CO)[C@@H](O)[C@H](O)[C@H]1O | 1.25
CCCCNc1ccc(C(=O)OCCN(C)C)cc1 | -0.157
C=CC1(C)C=C2CCC3C(C)(C)C(O[C@@H]4O[C@@H](CO)[C@H](O)[C@H]4O)CCC3(C)C2CC1O[C@@H]1O[C@H](C)[C@@H](OC)[C@H](O)[C@H]1O (stereo partly drawn) | 1.89
COc1cc2c(c(OC)c1OC)-c1cc3c(cc1C[C@H]1C(=O)OC[C@@H]1C2)OCO3 | 0.816
O=Cc1ccccc1O[C@@H]1O[C@H](CO)[C@H](O)[C@@H](O)[C@H]1O | -0.838
O=C1[O][Pt][O]C(=O)C12CCC2 | 1.87 and 2
Cc1cc(O)c(Cc2c(O)cc(C)c(C=O)c2O)c(O)c1C | -1.37
COC(=O)C1=C(C)NC(C)=C(C(=O)OCCCN2CCC(c3ccccc3)(c3ccccc3)CC2)[C@@H]1c1cccc([N+](=O)[O-])c1 | 2.69
Cc1ccc(S(=O)(=O)NCc2ccccc2)cc1 | 2.12
Cc1cc(F)c(Nc2ncnc3cc(OCc4ccccc4)ccc23)cc1O | 4.02
O=C(OC1OC(CO)C(O)C(O)C1O)c1c(O)cc(O)cc1/C=C/c1ccccc1 (stereo not drawn) | -0.0388
N=C(N)NC(=O)Cc1c(Cl)cccc1Cl | -2.15
Cc1nc2c(O)cccc2c(=O)[nH]1 | 2.74
CC(C)NC(=N)NC(=N)Nc1ccc(Cl)cc1 | 0.874
